These are yes or no findings as the source states them, for the method shown. Some entries that bind do so weakly or less than the wild type.
Molecular target: full-length human PD-1 expressed on cells (human) (UniProt Q15116)
Test: flow cytometry, K562 cells expressing full-length human PD-1

Amino acid sequences for entries named in this document (tags omitted). A change or cut given only in a name is not applied to a line headed by its entry.
UniProt Q15116: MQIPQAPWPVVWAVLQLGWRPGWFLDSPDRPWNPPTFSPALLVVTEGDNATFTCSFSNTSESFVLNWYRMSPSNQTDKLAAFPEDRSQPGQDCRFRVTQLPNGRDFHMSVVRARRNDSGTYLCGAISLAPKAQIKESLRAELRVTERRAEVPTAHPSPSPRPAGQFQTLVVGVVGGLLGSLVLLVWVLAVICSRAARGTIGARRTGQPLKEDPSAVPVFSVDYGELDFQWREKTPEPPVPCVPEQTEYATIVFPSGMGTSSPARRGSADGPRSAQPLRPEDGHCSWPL

B1: MAB-19-0202 (antibody, V domains shown)
VH: QSVEESGGRLVTPGTPLTLTCTVSGFSLYSYNMGWVRQAPGKGLEYIGIISGGTIGHYASWAKGRFTISKTSSTTVDLKMTSLTTEDTATYFCARAFYDDYDYNVWGPGTLVTVSS
VL: AAVLTQTPSPVSAAVGGTVTISCQSSQSVYGNNQLSWYQQKPGQPPKLLIYQASKLETGVPSRFKGSGSGTQFTLTISDLESDDAATYYCAGGYSSSSDTTFGGGTEVVVK
notes: Chimeric rabbit/human antibody: rabbit variable regions cloned N-terminal of human IgG1 / kappa constant parts with L234A and L235A (LALA)
With B1 the binding was “binds”.

B2: RiboMab-19-0233 (antibody, V domains shown)
VH: QSLEESGGDLVKPGASLTLTCKASGIDFSSVYYMCWVRQAPGKGLEWIACIYVGSSGVSYYATWAKGRFTISKTSSTTVTLQMTSLTAADTATYFCARAGYVGAVYVTLTRLDLWGQGTLVTVSS
VL: AAVLTQTPSPVSAAVGGTVTISCQSSQSIYTNNDLAWYQQKPGQPPKLLIYDASKLASGVPSRFSGSGSGTQFTLTISGVQSDDAATYYCLGGYDDDADNAFGGGTEVVVK
notes: Tested as HEK293T/17 supernatant, concentration not determined
With B2 the binding was “binds”.

Reference: patent US20230399403A1 (BIONTECH, published 2023)
